Data as given in US20230088269A1.
Changes are numbered by the printed parent chain. These are yes or no findings as the source states them, for the method shown. Some entries that bind do so weakly or less than the wild type. Where a sequence is shown, tags or fusion partners need not be part of it. One block for each binder: values may come before it.

Key:
[1] = target: T1, rhIL22R-Fc (rhesus IL22R ECD fused to human Fc) (rhesus monkey) (UniProt G7MHN4); experiment: ELISA and SPR (Biacore), mAb
T1 sequence: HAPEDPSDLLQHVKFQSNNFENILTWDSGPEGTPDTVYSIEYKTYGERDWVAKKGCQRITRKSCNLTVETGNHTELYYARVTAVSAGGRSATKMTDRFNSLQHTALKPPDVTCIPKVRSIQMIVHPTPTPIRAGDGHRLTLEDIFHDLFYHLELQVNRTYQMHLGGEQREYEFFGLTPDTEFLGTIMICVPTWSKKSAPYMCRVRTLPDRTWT

[2] = target: T1, rhIL22R-Fc (rhesus IL22R ECD fused to human Fc) (rhesus monkey); experiment: summary table of cross-reactivity, mAb

binding [1]: binds | binding [2]: binds
B1: 157A2 mAb (antibody, IgG1, V domains shown)
VH: QVQLVESGGGLVQPGGSLRLSCAASGFTFSSYDMSWVRQAPGKGLEWVSSIYNDGSNTAYSDSVKGRFTISRDNAKNTLYLQMNSLKSEDTAVYYCAKVGFSGTYYSESWGQGTQVTVSS
VL: NFMLTQPSAVSVSLGQTAKITCQGGYYAHWYQQKPGQAPVLVIYGNNNRPSGIPERFSGSSSGNTATLTISGAQAEDEAEYYCQSGSSSANAVFGGGTHLTVL

binding [2]: binds
B2: 218A7 mAb (antibody, V domains shown)
VH: B1 VH
VL: B1 VL with N1L, F2P, M3V, K19R, N46Q, S61G, S62A, H99K

binding [1]: binds | binding [2]: binds
B3: 166G8 mAb (antibody, IgG1, V domains shown)
VH: QVQLVESGGGLVQPGDSLRLSCAASGFTFGSYFMSWVRQAPGKGPEWVSGIHISGGITYYLDSVKGRFTISRDNAKNTLYLQMNNLKPEDTAVYYCVTPPGPFKAHYNGMKYWGKGTLVTVSS
VL: NFMLTQPPSVSGTLGKTVTISCTGTSRDIGDYNYVSWYQQLPGLAPKLLIYKVNTRSSGTPDRFSGSKSGNTASLTISGLQSEDEADYYCASYRLYADYVFGGGTHLTVL
